Assay results taken from PubChem BioAssay AID493014 (National Center for Advancing Translational Sciences (NCATS), 2011).
Some of the results follow. These are further read-outs of the screen, such as a control signal, another cell line or another target. No call is given for them. The list favours compounds with an active or inconclusive main result. Potencies come from curve fits of mixed quality, noted in brackets.

Experiment: qHTS Assay to Find Inhibitors of Chronic Active B-Cell Receptor Signaling
Details: ABC-DLBCL IkBa-CBG/CBR reporter, luminescence ratio (green luciferase fused to IkBa over red control in TMD8 lymphoma cells), 4 h
How it was run: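 TMD8 ABC-DLBCL cells carrying doxycycline-inducible green luciferase fused to IkappaBalpha plus unfused red luciferase were exposed to compounds (up to 46 uM) for 4 hrs at 37C. Activity came from the overlap-corrected green/red luminescence ratio.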

[1] = measured here: CBR red luminescence, cell number
[2] = measured here: IkBa-CBG green luminescence

Row | SMILES | AC50 [1] | AC50 [2]
1 | CC(C)OP(=O)(OC(C)C)C(Nc1ccccc1)c1cccc2c1OCO2 (stereo not drawn) | 29.1 µM [falling, single point] | 
2 | CCCCn1c(O)c(C(CC)=Nc2cccc(C(=O)O)c2)c(=O)[nH]c1=O | 9.2 µM [rising, partial curve, poor fit] | 
3 | O=C(CNC(=O)c1cccc(Cl)c1)Nc1ccc(Br)cc1C(=O)c1ccccc1 | 29.1 µM [falling, single point] | 
4 | C/C(CC(c1ccccc1)c1c(O)c2ccccc2oc1=O)=N\NC(N)=S (stereo not drawn) |  | 23.1 µM [falling, single point]
5 | COc1ccc(CNCCc2ccc(Cl)cc2Cl)cc1 | 0.2 µM [falling, partial curve, poor fit] | 
6 | CC(=O)Nc1cccc(OCC(=O)/C=C2\N(C)c3ccccc3C2(C)C)c1 | 25.1 µM [falling, single point] | 
7 | CC/C(=N\NC(=O)Nc1ccccc1)c1c(O)n(Cc2ccccc2)c(=O)[nH]c1=O | 12.6 µM [falling, single point] | 
8 | CCOP(=O)(OCC)/C(C#N)=C/c1ccoc1 | 22.4 µM [rising, single point] | 
9 | O=C1NC(=O)N(Cc2ccccc2)C(=O)/C1=C\C=C\c1ccco1 | 35.5 µM [rising, single point] | 17.8 µM [falling, partial curve, poor fit]
10 | CC(Cc1cccs1)NCc1ccc(Cl)cc1 (stereo not drawn) | 10 µM [rising, partial curve, poor fit] | 
11 | CC12CN3CN(C1)CC(c1ccccc1)(C3)C2=O | 2.91 µM [rising, single point] | 
12 | Cc1ccc(N2CCN(CCc3ccccc3)CC2)cc1 | 15.8 µM [rising, partial curve, poor fit] | 
13 | CCOc1ccc(NC(=O)Cn2c(=O)oc3ccccc32)cc1 | 18.4 µM [falling, single point] | 
14 | Clc1ccc(C[n+]2c(-c3ccccc3)cc(-c3ccccc3)cc2-c2ccccc2)cc1 | 3.66 µM [falling, full curve, poor fit] | 16.4 µM [rising, partial curve, poor fit]
15 | COc1ccc(-n2c(C)nc3c(cnn3-c3ccc(C)c(C)c3)c2=O)cc1 | 11.2 µM [rising, partial curve, poor fit] | 
16 | O=C(COc1ccccc1)c1cn(Cc2ccccc2)c2ccccc12 | 0.259 µM [falling, full curve] | 
17 | CC1(O)CCN2C(=O)CCc3cccc1c32 (stereo not drawn) | 16.4 µM [falling, partial curve, poor fit] | 
18 | COC(=O)C1=C(c2ccc(OCc3ccccc3)cc2)C[C@@H]2CC[C@H]1N2C(=O)NCc1cccc(C(F)(F)F)c1 | 6.51 µM [falling, partial curve] | 
19 | COc1cc(C=C2C(=O)NC(=O)NC2=O)ccc1O | 10 µM [rising, partial curve, poor fit] | 
20 | NC(N)=N/N=C/c1cn(-c2ccccc2)nc1-c1cccs1 | 11.2 µM [falling, partial curve, poor fit] | 
21 | Cc1ccc(/C=C/C(O)=C2/C(=O)N(C)C3(C)CC2c2ccccc2O3)cc1 (stereo not drawn) | 14.1 µM [falling, single point] | 

Single values from the results shown:
CC12CN3CN(C1)CC(c1ccccc1)(C3)C2=O | AC50 [1]: 2.91 µM [rising, single point]
COc1ccc(CNCCc2ccc(Cl)cc2Cl)cc1 | AC50 [1]: 0.2 µM [falling, partial curve, poor fit]
NC(N)=N/N=C/c1cn(-c2ccccc2)nc1-c1cccs1 | AC50 [1]: 11.2 µM [falling, partial curve, poor fit]
Cc1ccc(N2CCN(CCc3ccccc3)CC2)cc1 | AC50 [1]: 15.8 µM [rising, partial curve, poor fit]
CCCCn1c(O)c(C(CC)=Nc2cccc(C(=O)O)c2)c(=O)[nH]c1=O | AC50 [1]: 9.2 µM [rising, partial curve, poor fit]

Later entries

Row | SMILES | AC50 [1] | AC50 [2]
22 | O=S(=O)(Cc1ccccc1)Nc1ccc(Br)cn1 | 22.4 µM [rising, single point] | 
23 | COc1ccc(C(=O)Nc2ccc(C)c(S(=O)(=O)N3CCCCCC3)c2)cc1 | 20 µM [falling, partial curve, poor fit] | 
24 | Cc1c(C(=O)c2ccccc2)c2ccccc2n1C | 0.0891 µM [rising, full curve, poor fit] | 
25 | COC(=NC1CCCCC1)C(O)c1c[nH]c2ccccc12 (stereo not drawn) | 1.64 µM [falling, full curve] | 
26 | COc1ccc(-c2nn(CCC#N)cc2C(=O)Nc2ccc(C(C)=O)cc2)cc1[N+](=O)[O-] | 7.08 µM [rising, partial curve] | 11.2 µM [falling, partial curve]
27 | N#CC(C#N)=NNc1ccc(-n2ccc(C(F)(F)F)n2)cc1 | 2.82 µM [falling, full curve] | 
28 | Cc1ccc(C(=O)c2cc(Br)ccc2N)cc1 | 10 µM [rising, partial curve] | 
29 | O=C(NCCc1c[nH]c2ccccc12)c1cc2ccccc2oc1=O | 3.16 µM [falling, full curve] | 
30 | CCOC(=O)CCP(=O)(O)C(O)c1ccccc1 (stereo not drawn) | 6.51 µM [falling, single point] | 
31 | CCOc1ccc(Nc2nc(NCC3CCCO3)c3ccccc3n2)cc1 (stereo not drawn) | 11.2 µM [falling, partial curve, poor fit] | 
32 | COCCOC(=O)c1c(N)n(Cc2ccco2)c2nc3ccccc3nc12 | 0.251 µM [falling, full curve, poor fit] | 
33 | CCOc1cc(-c2nc3c(C)cccn3c2NCC2CCCO2)ccc1O (stereo not drawn) | 14.1 µM [falling, single point] | 
34 | CC(C)c1ccc(NC(=O)CSc2nnc(OC(=O)N(C)C)n2C2CC2)cc1 | 3.55 µM [falling, full curve] | 
35 | COC(=O)C1=C(c2ccc(F)cc2OCc2ccccc2)C[C@@H]2CC[C@H]1N2C(=O)NCc1ccc([N+](=O)[O-])cc1 | 25.9 µM [falling, single point] | 
36 | CC(=O)Nc1ccc2c(c1)CC1(C(=O)N(C)C(=O)N(C)C1=O)C1CCCN21 (stereo not drawn) | 2.51 µM [rising, full curve, poor fit] | 
37 | N/C(=N\NC(=O)Nc1ccc(Cl)cc1)c1ccccn1 | 8.91 µM [falling, partial curve, poor fit] | 
38 | CCOP(=O)(OCC)c1nc(-c2ccc(OC)cc2)oc1N1CCOCC1 | 3.16 µM [rising, full curve, poor fit] | 
39 | Clc1ccc(COC(Cn2ccnc2)c2ccc(Cl)cc2Cl)c(Cl)c1 (stereo not drawn) | 14.1 µM [falling, partial curve, poor fit] | 29.1 µM [falling, single point]
40 | COC(=O)C1=C(c2ccc3ccccc3c2)C[C@@H]2CC[C@H]1N2C(=O)NC1Cc2ccccc2C1 | 4.61 µM [falling, partial curve] | 
41 | CCc1ccccc1NC(=O)CNC1CCCCC1 | 20 µM [falling, partial curve, poor fit] | 
42 | Cn1c(=O)cc(OCCCC(=O)N2CCC3(CC2)OCCO3)c2ccccc21 | 25.1 µM [rising, single point] | 

Row | SMILES | AC50 [1] | AC50 [2]
43 | CCN1CCc2c(sc(NC(=O)c3cc4ccccc4cc3OC)c2C(N)=O)C1 | 14.1 µM [falling, single point] | 
44 | CCCCCn1c(=O)c2ccccc2n2c(CCl)nnc12 | 20 µM [falling, partial curve, poor fit] | 
45 | CN(C)C(Cc1ccccc1)C(=O)c1ccccc1 (stereo not drawn) | 1.64 µM [rising, full curve, poor fit] | 
46 | Cn1cc(Br)c(C(=O)Nc2ccc3c(C(F)(F)F)cc(=O)oc3c2)n1 | 0.891 µM [falling, full curve, poor fit] | 
47 | O=c1[nH]c(=S)[nH]c(O)c1/C=C1/C=c2ccccc2=N1 | 31.6 µM [rising, single point] | 35.5 µM [falling, single point]
48 | CCC(=NCCc1ccccc1)c1c(O)n(C2CCCCC2)c(=O)[nH]c1=O | 13 µM [rising, partial curve, poor fit] | 
49 | COc1ccccc1OCCCn1cc(C(=O)C2CC2)c2ccccc21 | 35.5 µM [falling, single point] | 
50 | COc1ccc(OC(=O)N(C)C)c(CN(C)C)c1 | 4.11 µM [rising, partial curve, poor fit] | 3.26 µM [falling, partial curve, poor fit]
51 | c1ccc(CN2CCc3nc4ccccc4cc3C2)cc1 | 10 µM [rising, partial curve, poor fit] | 
52 | CCN(CC)CCCOC(=O)C(OC(C)C)(c1ccccc1)c1ccccc1 | 7.31 µM [falling, partial curve] | 
53 | O=C(Nc1ccc(Cl)c(Cl)c1)O/N=C/c1ccncc1 | 0.461 µM [rising, full curve, poor fit] | 
54 | CCOP1(=S)Oc2cc3c(cc2C(C(=O)OC)(C(F)(F)F)O1)OCO3 (stereo not drawn) | 9.2 µM [falling, partial curve, poor fit] | 
55 | CC(=NCCCn1ccnc1)c1c(O)n(C2CCCCC2)c(=O)[nH]c1=O | 0.794 µM [rising, full curve, poor fit] | 
56 | CCOC(=O)c1c(N)n(Cc2ccc(OC)cc2)c2nc3ccccc3nc12 | 22.4 µM [falling, single point] | 
57 | O=c1cc(-c2ccc(O)c(O)c2)oc2cc(O)cc(O)c12 | 12.6 µM [falling, partial curve, poor fit] | 
58 | CCN(CC)C(=O)c1ccc(NC(=O)CNC(C)c2cccc3ccccc23)cc1 (stereo not drawn) | 14.1 µM [falling, single point] | 
59 | Nc1ccccc1C(=O)OCCc1ccccc1 | 9.2 µM [falling, partial curve, poor fit] | 
60 | Clc1ccc2c(c1)C(c1ccccc1Cl)=NCc1nnc(N3CCN(CCOc4ccccc4)CC3)n1-2 | 23.1 µM [falling, single point] | 
61 | CCCCCn1c(=O)c(C(=O)NC(C)c2ccccc2)c(O)c2ccccc21 (stereo not drawn) | 2 µM [rising, full curve, poor fit] | 
62 | COc1ccc(CC(C)Nc2cccc(F)c2)cc1 (stereo not drawn) | 3.16 µM [rising, full curve, poor fit] | 
